The values that follow are results of earlier work, collected in patent US20070225544A1, “APPARATUSES AND TECHNIQUES FOR BIOACTIVE DRUG DELIVERY IN THE PROSTATE GLAND” (priority 2006, published 2007).

Take `C[C@@H]1C[C@H]2[C@@H]3CCC4=CC(=O)C=C[C@]4(C)[C@@]3(F)[C@@H](O)C[C@]2(C)[C@@]1(O)C(=O)COP(=O)(O)O` [Dexamethasone sodium phosphate]: the Duration result (relative duration of action of injectable corticosteroid agent) is reported as “Long”. The Potency result (relative potency of injectable corticosteroid agent) is on record as “High”.
